Results published in patent US10479808B1, “Bisphosphonate-based coordination complexes as enhanced pharmaceutical formulations and method of preparing the same” (University of Puerto Rico, priority 2018, dated 2019).

Legend:
[1] = Dissolution profile in FaSSGF (pH 1.60), ALEN-Cu complexation, UV-Vis; type: physicochemical; conditions: for dissolution rate (in words): FaSSGF pH 1.60; for maximum release of the ALEN content, complete dissolution profile: up to 20 min
[2] = oral, reported in literature; cited from earlier work
[3] = Dissolution profile in PBS (pH 7.40), ALEN-Cu complexation, UV-Vis; type: physicochemical; conditions: for maximum release of the ALEN content (percent of ALEN dissolved), complete dissolution profile: up to 20 min; for dissolution rate (in words): PBS pH 7.40
Procedure: Dissolution profiles were performed via Copper (II) complexation with ALEN and quantified by measuring absorbance through UV-Vis spectroscopy. Dissolution profiles were recorded for ALEN sodium reagent, ALEN Sodium Tablets-USP (generic form of Fosamax®), ALEN-Ca forms I and II, and ALEN-Zn forms I and II, and ALEN-Mg. Dissolution tests were performed in 100 mL of PBS buffer (pH=7.40) and FaSSGF (pH=1.60), at 37° C. under constant stirring at 150 rpm. The absorbance of the soluble ALEN-Cu complex was measured at 231 nm in PBS and 225 nm in FaSSGF, against a reagent blank. Absorbance measurements were performed on an Agilent Technologies Cary Series UV-Vis Spectrophotometer, Cary 100 UV-Vis model; using the UV Cary Scan software version v.20.0.470. All measurements were performed with a 400-200 nm scan.
To generate the ALEN-Cu complex, 4 mL of the diluted ALEN solutions were transferred into a series of 25-mL volumetric flasks to achieve an ALEN-Cu concentration range of 0.008-0.11 mg/mL. To each flask, 20 mL of 2.5 mM CuSO4 solution was added, homogenized and completed to volume with nanopure water. The absorbance of the formed ALEN-Cu complex was measured at 231 nm against a reagent blank prepared by the addition of 4 mL PBS buffer and 20 mL of the CuSO4 solution in a 25-mL volumetric flask and completed to volume with nanopore water.
Dissolution profiles were recorded for alendronate sodium reagent (ALEN), Alendronate Sodium Tablets-USP (generic form of Fosamax®), ALEN-Ca form I, ALEN-Ca form II, ALEN-Zn form I, ALEN-Zn form II and ALEN-Mg. Dissolution tests were performed in 100 mL of PBS buffer (pH=7.40), controlling temperature at 37° C. and stirring at 150 rpm. For the alendronate-based coordination complexes, reagent and tablets, 70 mg of the solid were grinded using a mortar and pestle. The powder was added to the PBS solution at the beginning of the dissolution under stirring. Samples of 1.6 mL were collected after 0, 5, 10, 15, 20 and 25 s to record the dissolution for the deglutition profile. For the complete dissolution profile, samples of the exact volume amount were collected from 1-6 min, in one-minute intervals. After the six-minute period, samples for 10, 15 and 20 min were collected. After collection, the samples were filtrated using a PTFE filter. The filtered solutions were placed in 10 mL volumetric flasks. To produce the ALEN-Cu complex, 7.4 mL of the 2.5 mM CuSO4 solution was added and completed to volume with nanopure water. The absorbance of the formed ALEN-Cu complex was measured at 231 nm against a reagent blank prepared by the addition of filtered 1.6 mL PBS buffer in a 10-mL volumetric flask, with 7.4 mL of the 2.5 mM copper (II) sulfate solution and completed to volume with nanopure water. Absorbance measurements were performed on an Agilent Technologies Cary Series UV-Vis Spectrophotometer, Cary 100 UV-Vis model; using the UV Cary Scan software version v.20.0.470. All measurements were performed with a 400-200 nm scan.
Dissolution profiles were performed via copper (II) complexation with alendronate content from the synthesized pBioCPs and quantified by measuring absorbance through UV-Vis spectroscopy. Two standard stock solution of ALEN were prepared by dissolving 100 mg of the drug in a 100-mL volumetric flask with PBS and the other one with FaSSGF. More dilute solutions were obtained by appropriate dilution from these stock solutions. Accurately measured aliquots of the ALEN stock solutions were transferred into a series of 25-mL volumetric flasks to achieve a concentration range of 0.05-0.7 mg/mL. Each solution was completed to the 25-mL mark with PBS and FaSSGF respectively. A calibration curve of ALEN-Cu complex with a concentration range of 0.008-0.11 mg/mL in PBS and 0.006-0.084 mg/mL in FaSSGF was used for indirect alendronate quantification. […]

[4] = FaSSGF pH 1.60, 37 °C, 150 rpm, 70 mg in 100 mL
[5] = PBS pH 7.40, 37 °C, 150 rpm, 70 mg in 100 mL

| Compound | dissolution rate (in words) [1] | percent of the drug dissolved, early-stage dissolution ([1]; FaSSGF pH 1.60, 37 °C, 150 rpm, 70 mg in 100 mL, after 10 sec) [%] | maximum release of the ALEN content, complete dissolution profile [1, 4] [%] | absorption of the BP in the intestines [2] | percent of ALEN dissolved/released, early-stage dissolution ([3]; PBS pH 7.40, 37 °C, 150 rpm, 70 mg in 100 mL, after 25 sec) [%] | maximum release of the ALEN content (percent of ALEN dissolved), complete dissolution profile [3, 5] [%] | dissolution rate (in words) [3] |
| --- | --- | --- | --- | --- | --- | --- | --- |
| NCCCC(O)(P(=O)(O)O)P(=O)(O)O [ALEN, Alendronate sodium trihydrate, reference compound] | most rapid release | 97 | 100 | up to 10% | 61 | ~80 | – |
| NCCCC(O)(P(=O)([O-])O)P(=O)([O-])O.O.[Ca+2] [ALEN-Ca form I] | – | – | – | – | – | 52 | moderate dissolution rates |
| NCCCC(O)(P(=O)([O-])O)P(=O)([O-])O.O.[Zn+2] [ALEN-Zn form I] | moderate to lower dissolution rates | – | 66 | – | – | 43 | lower dissolution rates |
